{
  "source": "the supplement of paper PMC8728848",
  "experiment_in_all_cases": "glycan array binding signal (z-score within array); higher = stronger binding",
  "details_in_all_cases": "glycan notation: IUPAC condensed, linker removed",
  "key": {"Gal3S(b1-4)Glc6S": {"biological_target": "Gal3S(b1-4)Glc6S", "summary_of_the_method": "(§1)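 Negative Z-scores can be read as non-binding. The Z-score is calculated within each array and then averaged across arrays of one protein sequence at different concentrations or buffers and across linkers. Arrays, 3228 in all, were curated from the Consortium for Functional Glycomics database and kept only where the protein sequence was available.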"}, "Gal3S(b1-4)GlcNAc": {"biological_target": "Gal3S(b1-4)GlcNAc", "summary_of_the_method": "as §1"}, "[1]": {"biological_target": "Gal3S(b1-4)[Fuc(a1-3)]Glc6S", "summary_of_the_method": "as §1"}, "[2]": {"biological_target": "Gal3S(b1-4)[Fuc(a1-3)]GlcNAc", "summary_of_the_method": "as §1"}, "[3]": {"biological_target": "Gal3S(b1-4)[Fuc(a1-3)]GlcNAc6S", "summary_of_the_method": "as §1"}, "Gal3S4S(b1-4)GlcNAc": {"biological_target": "Gal3S4S(b1-4)GlcNAc", "summary_of_the_method": "as §1"}, "Gal3S6S(b1-4)GlcNAc": {"biological_target": "Gal3S6S(b1-4)GlcNAc", "summary_of_the_method": "as §1"}, "Gal3S6S(b1-4)GlcNAc6S": {"biological_target": "Gal3S6S(b1-4)GlcNAc6S", "summary_of_the_method": "as §1"}, "Gal4S(b1-4)GlcNAc": {"biological_target": "Gal4S(b1-4)GlcNAc", "summary_of_the_method": "as §1"}, "Gal4S6S(b1-4)GlcNAc": {"biological_target": "Gal4S6S(b1-4)GlcNAc", "summary_of_the_method": "as §1"}, "Gal6P(b1-4)GlcNAc": {"biological_target": "Gal6P(b1-4)GlcNAc", "summary_of_the_method": "as §1"}, "Gal6S(b1-3)GlcNAc": {"biological_target": "Gal6S(b1-3)GlcNAc", "summary_of_the_method": "as §1"}, "Gal6S(b1-3)GlcNAc6S": {"biological_target": "Gal6S(b1-3)GlcNAc6S", "summary_of_the_method": "as §1"}, "Gal6S(b1-4)Glc": {"biological_target": "Gal6S(b1-4)Glc", "summary_of_the_method": "as §1"}, "Gal6S(b1-4)Glc6S": {"biological_target": "Gal6S(b1-4)Glc6S", "summary_of_the_method": "as §1"}, "Gal6S(b1-4)GlcNAc": {"biological_target": "Gal6S(b1-4)GlcNAc", "summary_of_the_method": "as §1"}, "Gal6S(b1-4)GlcNAc6S": {"biological_target": "Gal6S(b1-4)GlcNAc6S", "summary_of_the_method": "as §1"}, "GalNAc(a1-3)Gal": {"biological_target": "GalNAc(a1-3)Gal", "summary_of_the_method": "as §1"}, "GalNAc(a1-3)GalNAc": {"biological_target": "GalNAc(a1-3)GalNAc", "summary_of_the_method": "as §1"}, "[4]": {"biological_target": "GalNAc(a1-3)GalNAc(a1-3)Gal(a1-4)Gal(b1-4)GlcNAc", "summary_of_the_method": "as §1"}, "[5]": {"biological_target": "GalNAc(a1-3)GalNAc(b1-3)Gal(a1-4)Gal(b1-4)Glc", "summary_of_the_method": "as §1"}, "GalNAc(b1-3)Gal": {"biological_target": "GalNAc(b1-3)Gal", "summary_of_the_method": "as §1"}, "[6]": {"biological_target": "GalNAc(b1-3)Gal(a1-4)Gal(b1-4)GlcNAc", "summary_of_the_method": "as §1"}, "[7]": {"biological_target": "GalNAc(b1-3)Gal(a1-4)Gal(b1-4)GlcNAc(b1-3)Gal(b1-4)Glc", "summary_of_the_method": "as §1"}, "[8]": {"biological_target": "GalNAc(b1-3)Gal(a1-6)Gal(b1-4)Glc", "summary_of_the_method": "as §1"}, "GalNAc(b1-3)GalNAc": {"biological_target": "GalNAc(b1-3)GalNAc", "summary_of_the_method": "as §1"}, "GalNAc(b1-3)GlcNAc": {"biological_target": "GalNAc(b1-3)GlcNAc", "summary_of_the_method": "as §1"}, "GalNAc(b1-4)Gal(b1-4)Glc": {"biological_target": "GalNAc(b1-4)Gal(b1-4)Glc", "summary_of_the_method": "as §1"}, "GalNAc(b1-4)GlcNAc": {"biological_target": "GalNAc(b1-4)GlcNAc", "summary_of_the_method": "as §1"}, "[9]": {"biological_target": "GalNAc(b1-4)GlcNAc(b1-2)Man", "summary_of_the_method": "as §1"}, "[10]": {"biological_target": "GalNAc(b1-4)GlcNAc(b1-2)Man(a1-3)[GalNAc(b1-4)GlcNAc(b1-2)Man(a1-6)]Man(b1-4)GlcNAc(b1-4)GlcNAc", "summary_of_the_method": "as §1"}, "[11]": {"biological_target": "GalNAc(b1-4)GlcNAc(b1-3)GalNAc(b1-4)GlcNAc", "summary_of_the_method": "as §1"}, "GalNAc(b1-4)GlcNAc6S": {"biological_target": "GalNAc(b1-4)GlcNAc6S", "summary_of_the_method": "as §1"}, "GalNAc(b1-6)GalNAc": {"biological_target": "GalNAc(b1-6)GalNAc", "summary_of_the_method": "as §1"}, "GalNAc3S(b1-4)GlcNAc": {"biological_target": "GalNAc3S(b1-4)GlcNAc", "summary_of_the_method": "as §1"}, "GalNAc3S(b1-4)GlcNAc3S": {"biological_target": "GalNAc3S(b1-4)GlcNAc3S", "summary_of_the_method": "as §1"}, "[12]": {"biological_target": "GalNAc3S(b1-4)[Fuc(a1-3)]GlcNAc", "summary_of_the_method": "as §1"}, "GalNAc4S6S(b1-4)GlcNAc": {"biological_target": "GalNAc4S6S(b1-4)GlcNAc", "summary_of_the_method": "as §1"}, "GalNAc6S(b1-4)GlcNAc": {"biological_target": "GalNAc6S(b1-4)GlcNAc", "summary_of_the_method": "as §1"}, "Glc(a1-4)Glc": {"biological_target": "Glc(a1-4)Glc", "summary_of_the_method": "as §1"}, "[13]": {"biological_target": "Glc(a1-4)Glc(a1-4)Glc(a1-4)Glc", "summary_of_the_method": "as §1"}, "Glc(a1-6)Glc(a1-6)Glc": {"biological_target": "Glc(a1-6)Glc(a1-6)Glc", "summary_of_the_method": "as §1"}, "[14]": {"biological_target": "Glc(a1-6)Glc(a1-6)Glc(a1-6)Glc", "summary_of_the_method": "as §1"}, "Glc(b1-4)Glc": {"biological_target": "Glc(b1-4)Glc", "summary_of_the_method": "as §1"}, "Glc(b1-6)Glc": {"biological_target": "Glc(b1-6)Glc", "summary_of_the_method": "as §1"}},
  "note": "This is one part of the list.",
  "data": [
    {"binder": "HFR-3 (Triticum aestivum) (protein) MKGLLLCALALAFAAVTTHAQLQSCPTRCGKQADGMECPNNLCCSKDGYCGLGVDYCSAGAGCQSGACYDNKICGAQANGTLCRNNHCCSSGGRCGYGREYCSNGCQGGPCWADLKCGHLDNGKLCPNNLCCSQYGYCGLGPEFCGTGCQNGACSTDKPCGNKANGAPCTNNYCCSQYGSCGLGKDYCGTGCQNGACN", "values": [
      {"measurement": "glycan array binding signal (z-score)", "setting": "Gal3S(b1-4)Glc6S", "result": 0.048},
      {"measurement": "glycan array binding signal (z-score)", "setting": "Gal3S(b1-4)GlcNAc", "result": 0.055},
      {"measurement": "glycan array binding signal (z-score)", "setting": "[1]", "result": 6.1},
      {"measurement": "glycan array binding signal (z-score)", "setting": "[2]", "result": 0.308},
      {"measurement": "glycan array binding signal (z-score)", "setting": "[3]", "result": -0.119},
      {"measurement": "glycan array binding signal (z-score)", "setting": "Gal3S4S(b1-4)GlcNAc", "result": -0.753},
      {"measurement": "glycan array binding signal (z-score)", "setting": "Gal3S6S(b1-4)GlcNAc", "result": 0.074},
      {"measurement": "glycan array binding signal (z-score)", "setting": "Gal3S6S(b1-4)GlcNAc6S", "result": 0.39},
      {"measurement": "glycan array binding signal (z-score)", "setting": "Gal4S(b1-4)GlcNAc", "result": 2.08},
      {"measurement": "glycan array binding signal (z-score)", "setting": "Gal4S6S(b1-4)GlcNAc", "result": 0.828},
      {"measurement": "glycan array binding signal (z-score)", "setting": "Gal6P(b1-4)GlcNAc", "result": -0.382},
      {"measurement": "glycan array binding signal (z-score)", "setting": "Gal6S(b1-3)GlcNAc", "result": -0.088},
      {"measurement": "glycan array binding signal (z-score)", "setting": "Gal6S(b1-3)GlcNAc6S", "result": -1.29},
      {"measurement": "glycan array binding signal (z-score)", "setting": "Gal6S(b1-4)Glc", "result": 1.54},
      {"measurement": "glycan array binding signal (z-score)", "setting": "Gal6S(b1-4)Glc6S", "result": 0.444},
      {"measurement": "glycan array binding signal (z-score)", "setting": "Gal6S(b1-4)GlcNAc", "result": -0.491},
      {"measurement": "glycan array binding signal (z-score)", "setting": "Gal6S(b1-4)GlcNAc6S", "result": 0.722},
      {"measurement": "glycan array binding signal (z-score)", "setting": "GalNAc(a1-3)Gal", "result": -0.819},
      {"measurement": "glycan array binding signal (z-score)", "setting": "GalNAc(a1-3)GalNAc", "result": -0.8},
      {"measurement": "glycan array binding signal (z-score)", "setting": "[4]", "result": -0.597},
      {"measurement": "glycan array binding signal (z-score)", "setting": "[5]", "result": -1.65},
      {"measurement": "glycan array binding signal (z-score)", "setting": "GalNAc(b1-3)Gal", "result": 1.25},
      {"measurement": "glycan array binding signal (z-score)", "setting": "[6]", "result": 1.23},
      {"measurement": "glycan array binding signal (z-score)", "setting": "[7]", "result": -0.821},
      {"measurement": "glycan array binding signal (z-score)", "setting": "[8]", "result": -0.624},
      {"measurement": "glycan array binding signal (z-score)", "setting": "GalNAc(b1-3)GalNAc", "result": -1.39},
      {"measurement": "glycan array binding signal (z-score)", "setting": "GalNAc(b1-3)GlcNAc", "result": -1.55},
      {"measurement": "glycan array binding signal (z-score)", "setting": "GalNAc(b1-4)Gal(b1-4)Glc", "result": 1.93},
      {"measurement": "glycan array binding signal (z-score)", "setting": "GalNAc(b1-4)GlcNAc", "result": 2.48},
      {"measurement": "glycan array binding signal (z-score)", "setting": "[9]", "result": -0.89},
      {"measurement": "glycan array binding signal (z-score)", "setting": "[10]", "result": 0.738},
      {"measurement": "glycan array binding signal (z-score)", "setting": "[11]", "result": -1.32},
      {"measurement": "glycan array binding signal (z-score)", "setting": "GalNAc(b1-4)GlcNAc6S", "result": 0.42},
      {"measurement": "glycan array binding signal (z-score)", "setting": "GalNAc(b1-6)GalNAc", "result": -0.596},
      {"measurement": "glycan array binding signal (z-score)", "setting": "GalNAc3S(b1-4)GlcNAc", "result": 0.144},
      {"measurement": "glycan array binding signal (z-score)", "setting": "GalNAc3S(b1-4)GlcNAc3S", "result": -0.084},
      {"measurement": "glycan array binding signal (z-score)", "setting": "[12]", "result": -0.973},
      {"measurement": "glycan array binding signal (z-score)", "setting": "GalNAc4S6S(b1-4)GlcNAc", "result": -0.038},
      {"measurement": "glycan array binding signal (z-score)", "setting": "GalNAc6S(b1-4)GlcNAc", "result": -1.27},
      {"measurement": "glycan array binding signal (z-score)", "setting": "Glc(a1-4)Glc", "result": 0.957},
      {"measurement": "glycan array binding signal (z-score)", "setting": "[13]", "result": 0.825},
      {"measurement": "glycan array binding signal (z-score)", "setting": "Glc(a1-6)Glc(a1-6)Glc", "result": 0.923},
      {"measurement": "glycan array binding signal (z-score)", "setting": "[14]", "result": -0.131},
      {"measurement": "glycan array binding signal (z-score)", "setting": "Glc(b1-4)Glc", "result": 0.435},
      {"measurement": "glycan array binding signal (z-score)", "setting": "Glc(b1-6)Glc", "result": -0.1}
    ]}
  ]
}
